In PubChem BioAssay AID1347076 (National Center for Advancing Translational Sciences (NCATS), 2019):
Out of some 400,000 compounds screened, about 13,000 (3.2%) were called active. This list was built around the results that the source calls inconclusive (neither active nor inactive); the mix of calls is not that of the screen. Calls come from the whole dose curve; as a rule, active = well fitted cell-killing curve with a large enough effect; inconclusive = small, poorly fitted or top-dose-only effect, or effect the other way; inactive = flat fitted curve, though single readings scatter. A potency beside an inconclusive call is a rough fit, not a confirmed value.

Experiment: qHTS assay for MDR1-selective chemotherapeutics: Primary screen using the drug-selected MDR subline cells KB-V1; note: nearly all actives have a fitted effect of over 60% in size
Settings: KB-V1 MDR cells viability, CellTiter-Glo, 72 h; activity change, negative = cytotoxicity: at 46.1 µM (top of the series)
Method in brief: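 Following 72 h at 37 degrees C with compound, KB-V1 cell viability was read by CellTiter-Glo luminescence, medium being phenol-red-free DMEM plus 10% FBS; concentration-response parameters came from normalized, curve-fitted qHTS data.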
% is set by controls: 0 for no effect and ±100 for the full control effect; potency is the fitted concentration of half-maximal effect.

| Compound | Potency | activity change, negative = cytotoxicity |
| --- | --- | --- |
| O=C(Nc1ccc(S(=O)(=O)N2CCCCC2)cc1)c1ccc(=O)[nH]c1 | inconclusive: 14.6 µM [rising, partial curve] | – |
| S=C(NCCc1ccccn1)Nc1ccc(Cl)c(Cl)c1 | active: 23.1 µM | – |
| O=C(c1ccccc1)c1c[nH]cc1-c1ccccc1 | – | inactive: -11.9% |
| CC(Sc1nnc(CN2CCCC2)n1Cc1ccccc1)C(=O)Nc1ccc(F)c(F)c1F (stereo unspecified) | active: 1.03 µM | – |
| CC(C)(C)NC(=O)c1ccc2c(c1)CCO2 | – | inactive: 1.2% |
| O=C(CC1C(=O)N(c2ccc(Cl)cc2)C(=S)N1CCc1ccncc1)Nc1ccc(F)cc1 (stereo unspecified) | – | inactive: -21.7% |
| CC(CN1CCCC1)OC(=O)C(c1ccccc1)c1ccccc1 (stereo unspecified) | – | inactive: 26% |
| COC(=O)c1ccc(Oc2cc(C)nc(NCc3ccccc3)n2)cc1 | – | inactive: 0% |
| CC1=CCC(C(=O)O)C(C(=O)Nc2ccc(-c3nc4ccc(C)cc4s3)cc2)C1 (stereo unspecified) | – | inconclusive: 20% |
| COc1ccnc(NCc2cccc(C(F)(F)F)c2)c1C#N | – | inactive: 13.2% |
| CC(C)CN(C(=O)COc1ccc2ccc(=O)oc2c1)C1CCS(=O)(=O)C1 (stereo unspecified) | inconclusive: 32.6 µM [cytotoxic, partial curve, poor fit] | – |
| CC(=O)Nc1ccc(N=Cc2ccc(OCc3ccccc3)cc2)cc1 | – | inactive: 1.04% |
| c1ccc2c(c1)OCC(c1nnc3sc(-c4ccc5c(c4)OCO5)nn13)O2 (stereo unspecified) | – | inactive: -8.4% |
| COc1ccc(C(=O)COC(=O)C(Cc2c[nH]c3ccccc23)NC(=O)c2ccc(C(C)(C)C)cc2)cc1 (stereo unspecified) | – | inactive: 2.29% |
| COc1ccc(C(=O)Nc2cccc(C)c2)cc1 | – | inactive: 7.92% |
| COc1ccc(-c2oc3ccc(N4CCOCC4)cc3c2C#CCO)cc1 | inconclusive: 29.1 µM [cytotoxic, single point] | – |
| Cc1ccc([C@@H]2C[C@H]3[C@@H](CN2S(=O)(=O)c2ccc(C)cc2)C(=O)C[C@@H](c2ccc(Cl)cc2)N3S(=O)(=O)c2ccc(C)cc2)cc1 | inconclusive: 5.17 µM [rising, partial curve] | – |
| O=C(CSCc1cnn(-c2ccccc2)c1-n1cccc1)NCc1ccccn1 | – | inactive: -30% |
| CN(CC(=O)Nc1cccc(F)c1)C(=O)c1ccc(N2CCCCC2)c([N+](=O)[O-])c1 | inconclusive: 8.2 µM [cytotoxic, partial curve] | – |
| COC(=O)c1cccc(C(=O)N2CCCC(C(=O)c3cc(F)ccc3F)C2)c1 (stereo unspecified) | inconclusive: 0.651 µM [cytotoxic, partial curve, poor fit] | – |
| Cc1cc2cc(C)c3nnc(SCC(=O)NCc4ccc5c(c4)OCO5)n3c2cc1C | inconclusive: 3.55 µM [cytotoxic, full curve] | – |
| CN(CCNC(=O)CCCOc1cc(=O)n(C)c2ccccc12)Cc1ccccc1 | – | inactive: -1.21% |
| Cc1nc2ccccn2c1C(=O)NC1CCCc2ccccc21 (stereo unspecified) | inconclusive: 11.6 µM [cytotoxic, partial curve] | – |

Two records drawn at random from those above, as already listed:

| Compound | Potency | activity change, negative = cytotoxicity |
| --- | --- | --- |
| COC(=O)c1cccc(C(=O)N2CCCC(C(=O)c3cc(F)ccc3F)C2)c1 (stereo unspecified) | inconclusive: 0.651 µM [cytotoxic, partial curve, poor fit] | – |
| CN(CC(=O)Nc1cccc(F)c1)C(=O)c1ccc(N2CCCCC2)c([N+](=O)[O-])c1 | inconclusive: 8.2 µM [cytotoxic, partial curve] | – |

Further structures

| Compound | Potency | activity change, negative = cytotoxicity |
| --- | --- | --- |
| O=C(NCc1ccco1)c1ccc(CS(=O)(=O)Cc2ccc(Cl)cc2)o1 | active: 14.6 µM | – |
| CCC1C/C(=C\c2cccnc2)C(=O)/C(=C/c2cccnc2)C1 (stereo unspecified) | inconclusive: 2.06 µM [cytotoxic, partial curve, poor fit] | – |
| O=C(Nc1ccncc1)c1cn(-c2ccccc2)nc1-c1cccs1 | inconclusive: 20.6 µM [cytotoxic, single point] | – |
| CC1CCN(C(=O)c2nc[nH]c2C(=O)N2CCC(C)CC2)CC1 | inconclusive: 2.06 µM [rising, full curve, poor fit] | – |
| COc1cc(C(=O)c2nccc3cc(OC)c(OC)cc23)c([N+](=O)[O-])cc1OC | inconclusive: 5.8 µM [cytotoxic, partial curve, poor fit] | – |
| CCOc1ccc(OCCN2CCCCC2)cc1 | inconclusive: 20.6 µM [cytotoxic, partial curve, poor fit] | – |
| CN1C(=O)NC(c2ccccc2)C2=C1CN(CCc1ccccc1)C2=O (stereo unspecified) | inconclusive: 18.4 µM [cytotoxic, partial curve, poor fit] | – |
| COc1ccc(/C=N\NC(=O)c2c(C)nc3ccc(Br)cn23)cc1 | inconclusive: 1.46 µM [cytotoxic, full curve, poor fit] | – |
| CCCCCCCCNS(=O)(=O)CCNCc1ccc(OC)cc1 | – | inactive: 3.96% |
| CC(=O)c1cnc(-c2ccccc2Cl)s1 | inconclusive: 29.1 µM [rising, single point] | – |
| CC1OC(C2CCCCC2)Cc2[nH]c(=S)[nH]c(=O)c21 (stereo unspecified) | inconclusive: 29.1 µM [cytotoxic, single point] | – |
| O=C([C@H](Cc1ccccc1)NS(=O)(=O)c1ccc(Cl)cc1)N1CC[C@@]2(O)CCCC[C@H]2C1 | inconclusive: 10.3 µM [cytotoxic, single point] | – |
| COc1ccc(NC(=O)CSc2nc(C)c3c(c2C#N)CCCC3)cc1 | active: 4.61 µM | – |
| CCN1CCN(CCNC(=O)c2ccc3c(c2)N(Cc2ccc(F)cc2)C(=O)/C(=C/c2ccccc2)S3)CC1 | – | inconclusive: -33.5% [cytotoxic] |
| O=C(c1ccc(Cl)cc1)c1cnc(Nc2ccccc2Cl)s1 | inconclusive: 16.4 µM [cytotoxic, partial curve, poor fit] | – |
| Cc1ccc(NC(=O)Cn2ncc(Cl)c(Cl)c2=O)cc1S(=O)(=O)N1CCCCC1 | inconclusive: 29.1 µM [rising, single point] | – |
| Cc1ccc(-n2c(-c3ccco3)nc3c(cnn3-c3ccccc3Cl)c2=O)cc1 | – | inactive: -6.61% |
| COc1ccc(OC)c(NS(=O)(=O)c2ccc(-c3cc(C)no3)s2)c1 | inconclusive: 2.06 µM [cytotoxic, full curve] | – |
| O=[N+]([O-])c1ccc(S(=O)(=O)Nc2ccccn2)cc1 | – | inactive: 5.86% |
| Cc1ccc(OCCCCNC2CCCC(C)C2C)c(C)c1 (stereo unspecified) | active: 20.6 µM | – |
| COC(=O)CN1CCN(C(c2ccccc2)c2ccccc2)CC1 | inconclusive: 10.3 µM [cytotoxic, partial curve] | – |
| COc1ccc(CN(C)C(=O)CCCNC(=O)c2ccc(Cl)cc2)cc1 | inconclusive: 16.4 µM [cytotoxic, single point] | – |
| COc1cc(NC(=O)c2cc3c(=O)n(C)c4ccccc4c3n2C)cc(OC)c1OC | inconclusive: 0.82 µM [rising, full curve] | – |
